Test [1] deals with T1, 11β-hsd-1 enzyme (Homo sapiens, UniProt P28845).
In test [2] the target is T1, 11β-hsd-1 enzyme. The settings on record: Table 1; inhibitor 0.1 μM.

Chains of the proteins cited; added tags and fusions are not shown.
UniProt P28845, whole entry: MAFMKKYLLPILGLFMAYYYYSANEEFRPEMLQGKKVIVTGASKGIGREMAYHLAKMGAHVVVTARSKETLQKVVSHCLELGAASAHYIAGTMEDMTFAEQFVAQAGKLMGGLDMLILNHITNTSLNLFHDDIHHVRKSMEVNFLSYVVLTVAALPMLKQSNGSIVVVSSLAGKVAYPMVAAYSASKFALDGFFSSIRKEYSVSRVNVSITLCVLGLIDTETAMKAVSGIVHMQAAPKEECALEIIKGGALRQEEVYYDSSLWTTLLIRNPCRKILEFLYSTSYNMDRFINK

Structures were worked out from names or drawings and are uncertain.

As usually defined, the Ki is the dissociation constant of the complex between target and ligand, obtained from inhibition or displacement. A high value points to weaker binding.

In turn, `Nc1cccc(NS(=O)(=O)N2CCC(c3ccc(Cl)cc3)CC2)n1` gave a Ki at 11β-hsd-1 enzyme [1] of less than 1 nM. The “% Inh @ 0.1 μM” value at 11β-hsd-1 enzyme [2] came out at 62%.

The compound `Cc1cc(N)nc(NS(=O)(=O)N2CCN(c3ccc(C#N)cn3)[C@H](C)C2)c1` had a Ki at 11β-hsd-1 enzyme [1] of 2 nM. Moreover, the “% Inh @ 0.1 μM” value at 11β-hsd-1 enzyme [2] was determined as 100%.

These data come from patent US20070027118A1 (priority 2005, published 2007).
